Experimental data reported in PMC7532541.
These are yes or no findings as the source states them, for the method shown. In cells and extracts the contact can be indirect. Some results given as binding are weak or reduced against the parent protein; the word gives no strength.

Amino acid sequences for entries named in this document (tags omitted).
UniProt Q15717: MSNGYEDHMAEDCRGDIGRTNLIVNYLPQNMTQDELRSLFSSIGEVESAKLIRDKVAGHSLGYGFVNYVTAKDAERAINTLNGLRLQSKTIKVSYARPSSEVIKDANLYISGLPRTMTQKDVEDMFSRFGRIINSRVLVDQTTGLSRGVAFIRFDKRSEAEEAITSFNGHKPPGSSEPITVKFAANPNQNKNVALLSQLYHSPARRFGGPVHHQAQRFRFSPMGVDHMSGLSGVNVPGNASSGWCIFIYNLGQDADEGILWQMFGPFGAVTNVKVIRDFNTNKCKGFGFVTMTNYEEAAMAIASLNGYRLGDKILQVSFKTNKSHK

T1: Alpha fetoprotein (AFP), endogenous (human (endogenous in HuH7)) (UniProt P02771)
T1 sequence: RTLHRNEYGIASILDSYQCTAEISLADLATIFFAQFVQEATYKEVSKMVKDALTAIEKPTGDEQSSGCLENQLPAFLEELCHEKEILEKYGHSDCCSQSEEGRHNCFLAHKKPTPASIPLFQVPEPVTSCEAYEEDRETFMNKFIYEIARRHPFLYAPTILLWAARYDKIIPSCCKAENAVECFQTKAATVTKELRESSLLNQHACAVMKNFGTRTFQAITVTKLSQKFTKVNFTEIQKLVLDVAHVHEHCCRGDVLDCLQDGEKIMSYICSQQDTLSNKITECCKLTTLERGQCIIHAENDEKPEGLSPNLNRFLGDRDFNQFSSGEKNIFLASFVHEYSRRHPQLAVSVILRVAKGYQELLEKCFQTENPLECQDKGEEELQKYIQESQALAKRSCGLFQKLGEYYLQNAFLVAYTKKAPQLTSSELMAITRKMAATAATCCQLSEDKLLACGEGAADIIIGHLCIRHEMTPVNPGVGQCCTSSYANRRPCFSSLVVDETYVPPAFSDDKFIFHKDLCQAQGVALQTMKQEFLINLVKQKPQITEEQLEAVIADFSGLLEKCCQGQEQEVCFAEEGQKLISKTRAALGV

T2: Alpha fetoprotein (AFP), ectopically expressed (UniProt P02771)
T2 sequence: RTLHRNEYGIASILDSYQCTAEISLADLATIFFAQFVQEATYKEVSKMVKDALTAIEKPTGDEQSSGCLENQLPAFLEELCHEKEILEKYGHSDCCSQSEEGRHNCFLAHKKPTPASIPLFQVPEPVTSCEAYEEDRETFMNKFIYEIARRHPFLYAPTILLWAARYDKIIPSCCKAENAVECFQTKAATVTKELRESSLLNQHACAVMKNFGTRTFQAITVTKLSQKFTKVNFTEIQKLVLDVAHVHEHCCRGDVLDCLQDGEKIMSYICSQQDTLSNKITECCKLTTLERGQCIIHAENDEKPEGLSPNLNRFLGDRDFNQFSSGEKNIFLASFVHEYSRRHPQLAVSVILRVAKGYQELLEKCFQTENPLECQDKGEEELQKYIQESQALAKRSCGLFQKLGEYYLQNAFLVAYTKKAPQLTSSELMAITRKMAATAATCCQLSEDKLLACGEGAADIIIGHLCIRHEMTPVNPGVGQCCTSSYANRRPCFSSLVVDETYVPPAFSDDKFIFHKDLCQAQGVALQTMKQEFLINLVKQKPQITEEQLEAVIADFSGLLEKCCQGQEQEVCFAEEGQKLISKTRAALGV


Columns and labels:
[1] = target: T1, Alpha fetoprotein (AFP), endogenous (human (endogenous in HuH7)); assay: co-IP; lysate of HuH7 cells, endogenous proteins; anti-AFP or anti-HuR antibody (reciprocal), protein G-sepharose; buffer 50 mM Tris/HCl pH 7.5, 150 mM NaCl, 1% Triton X-100, 1 mM EDTA, 10% glycerol; Western blot; IgG as negative control
[2] = target: T2, Alpha fetoprotein (AFP), ectopically expressed; assay: co-IP; lysate of HLE cells stably transfected with the AFP expression plasmid; AFP precipitated, protein G-sepharose; buffer 50 mM Tris/HCl pH 7.5, 150 mM NaCl, 1% Triton X-100, 1 mM EDTA, 10% glycerol; Western blot; IgG as negative control
[3] = target: Human antigen R (HuR), endogenous (human (endogenous in HLE and HuH7)) (UniProt Q15717); assay: co-IP; lysate of HuH7 cells, endogenous proteins; anti-AFP or anti-HuR antibody (reciprocal), protein G-sepharose; buffer 50 mM Tris/HCl pH 7.5, 150 mM NaCl, 1% Triton X-100, 1 mM EDTA, 10% glycerol; Western blot; IgG as negative control

| binding [1] | binding [2] | binding [3] | Molecule |
| --- | --- | --- | --- |
| binds | binds |  | Human antigen R (HuR), endogenous (from UniProt Q15717 1-326) |
|  |  | binds | Alpha fetoprotein (AFP), endogenous (protein, UniProt P02771 19-609) RTLHRNEYGIASILDSYQCTAEISLADLATIFFAQFVQEATYKEVSKMVKDALTAIEKPTGDEQSSGCLENQLPAFLEELCHEKEILEKYGHSDCCSQSEEGRHNCFLAHKKPTPASIPLFQVPEPVTSCEAYEEDRETFMNKFIYEIARRHPFLYAPTILLWAARYDKIIPSCCKAENAVECFQTKAATVTKELRESSLLNQHACAVMKNFGTRTFQAITVTKLSQKFTKVNFTEIQKLVLDVAHVHEHCCRGDVLDCLQDGEKIMSYICSQQDTLSNKITECCKLTTLERGQCIIHAENDEKPEGLSPNLNRFLGDRDFNQFSSGEKNIFLASFVHEYSRRHPQLAVSVILRVAKGYQELLEKCFQTENPLECQDKGEEELQKYIQESQALAKRSCGLFQKLGEYYLQNAFLVAYTKKAPQLTSSELMAITRKMAATAATCCQLSEDKLLACGEGAADIIIGHLCIRHEMTPVNPGVGQCCTSSYANRRPCFSSLVVDETYVPPAFSDDKFIFHKDLCQAQGVALQTMKQEFLINLVKQKPQITEEQLEAVIADFSGLLEKCCQGQEQEVCFAEEGQKLISKTRAALGV |
